PubChem BioAssay AID493246, Drosophila RNAi Screening Center, 2011
Assay: 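Identify essential fly genes by loss of cell viability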 (primary screen). Cell system: Drosophila Kc and S2R+ cells. Reagents: long dsRNA against Drosophila genes. Measured: 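Cell number per well after knock-down, printed as raw plate values; calls were based on per-plate z-scores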. Reading the numbers: Kc cell number and S2R+ cell number: higher = more cells remaining. Active means: 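Counted as a hit if cell number falls by a z-score of at least 3 within its plate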.
In all, the deposit lists about 21,000 reagents; shown is a random part of those that have a named target and a result. Of all reagents, 429 (2%) got an active call. 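Values are raw and not normalised between plates; calls rest on per-plate z-scores that were not deposited.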 Reagents against one gene are numbered here. Names joined by + are all predicted targets of the reagent. Not given: the amount of reagent, the time to read-out.

target | reagent no. | Kc cell number, rep 1 | Kc cell number, rep 2 | S2R+ cell number, rep 1 | S2R+ cell number, rep 2 | activity call
Tssk (Testis-specific serine/threonine kinase) | 1 | 1.25e6 | 1.27e6 | 1.13e6 | 1.24e6 | inactive
Btnd (Biotinidase) | 1 | 1.48e6 | 1.49e6 | 1.12e6 | 1.27e6 | inactive
CG11977 | 1 | 1.58e6 | 1.63e6 | 1.15e6 | 1.28e6 | inactive
Gnf1 (Germ line transcription factor 1) | 1 | 1.73e6 | 1.83e6 | 1.03e6 | 1.09e6 | inactive
CG6661 | 1 | 1.74e6 | 1.81e6 | 1.17e6 | 1.30e6 | inactive
Bacc (Bacchus) | 1 | 1.62e6 | 1.64e6 | 1.10e6 | 1.32e6 | inactive
CG13021 | 1 | 1.26e6 | 1.60e6 | 1.09e6 | 1.28e6 | inactive
Kaz1-ORFB + Kaz1-ORFA | 1 | 1.24e6 | 1.14e6 | 9.73e5 | 1.25e6 | inactive
CG2685 | 1 | 1.31e6 | 1.38e6 | 7.04e5 | 8.23e5 | inactive
CG9616 | 1 | 1.29e6 | 1.17e6 | 9.21e5 | 9.96e5 | inactive
CG4133 | 1 | 1.46e6 | 1.52e6 | 8.92e5 | 1.02e6 | inactive
CG10527 | 1 | 1.39e6 | 1.45e6 | 1.02e6 | 1.10e6 | inactive
Phb1 (Prohibitin 1) | 1 | 1.33e6 | 1.37e6 | 1.06e6 | 1.09e6 | inactive
Gr33a (Gustatory receptor 33a) | 1 | 1.53e6 | 1.63e6 | 1.22e6 | 1.32e6 | inactive
Rpn7 (Regulatory particle non-ATPase 7) | 1 | 9.20e5 | 1.06e6 | 7.12e5 | 7.88e5 | active

Part of the list above, set out differently.
Bacc (Bacchus)
- Kc cell number, rep 1: 1.62e6
- Kc cell number, rep 2: 1.64e6
- S2R+ cell number, rep 1: 1.10e6
- S2R+ cell number, rep 2: 1.32e6
- activity call: inactive

CG13021
- Kc cell number, rep 1: 1.26e6
- Kc cell number, rep 2: 1.60e6
- S2R+ cell number, rep 1: 1.09e6
- S2R+ cell number, rep 2: 1.28e6
- activity call: inactive

Kaz1-ORFB + Kaz1-ORFA
- Kc cell number, rep 1: 1.24e6
- Kc cell number, rep 2: 1.14e6
- S2R+ cell number, rep 1: 9.73e5
- S2R+ cell number, rep 2: 1.25e6
- activity call: inactive

Continued.
target | reagent no. | Kc cell number, rep 1 | Kc cell number, rep 2 | S2R+ cell number, rep 1 | S2R+ cell number, rep 2 | activity call
CR11700 (retired record) | 1 | 1.05e5 | 1.12e5 | 2.37e5 | 3.19e5 | active
Xpac (Xeroderma pigmentosum group A-like) | 1 | 1.64e6 | 1.64e6 | 1.06e6 | 1.20e6 | inactive
Trmt61 (tRNA methyltransferase 61) | 1 | 1.56e6 | 1.69e6 | 1.05e6 | 1.22e6 | inactive
CG10469 | 1 | 1.37e6 | 1.30e6 | 1.11e6 | 1.17e6 | inactive
side-II (sidestep II) | 1 | 1.47e6 | 1.56e6 | 9.85e5 | 1.17e6 | inactive
side-II (sidestep II) | 2 | 1.49e6 | 1.58e6 | 9.81e5 | 1.19e6 | inactive
side-II (sidestep II) | 3 | 1.54e6 | 1.67e6 | 1.19e6 | 1.33e6 | inactive
side-II (sidestep II) | 4 | 1.41e6 | 1.57e6 | 1.03e6 | 1.17e6 | inactive
side-II (sidestep II) | 5 | 1.62e6 | 1.72e6 | 1.31e6 | 1.48e6 | inactive
